Publication PMC4881948, “X-Ray Solution Scattering Study of Four Escherichia coli Enzymes Involved in Stationary-Phase Metabolism” (PLoS ONE, 2016)
These are yes or no findings as the source states them, for the method shown.

How the values were obtained:
Assay in all cases: SAXS; mixed samples PPase/FbaB, PPase/GadA, PPase/KduI; data compared with the volume-fraction weighted sum of the data of the single components; both purified
[1] = biological target: T1, Class I fructose-1,6-bisphosphate aldolase (FbaB) from E. coli (E. coli) (UniProt P0A991)
T1 sequence: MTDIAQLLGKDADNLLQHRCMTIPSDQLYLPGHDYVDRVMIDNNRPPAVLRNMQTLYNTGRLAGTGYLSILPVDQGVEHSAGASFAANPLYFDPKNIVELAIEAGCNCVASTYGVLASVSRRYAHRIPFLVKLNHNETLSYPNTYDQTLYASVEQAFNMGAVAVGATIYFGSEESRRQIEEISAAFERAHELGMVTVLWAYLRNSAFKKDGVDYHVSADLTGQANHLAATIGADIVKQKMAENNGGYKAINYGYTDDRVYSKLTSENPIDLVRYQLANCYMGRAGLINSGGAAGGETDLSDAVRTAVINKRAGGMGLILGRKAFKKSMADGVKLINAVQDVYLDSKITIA

[2] = biological target: T2, 5-keto 4-deoxyuronate isomerase (KduI) from E. coli (E. coli) (UniProt Q46938)
T2 sequence: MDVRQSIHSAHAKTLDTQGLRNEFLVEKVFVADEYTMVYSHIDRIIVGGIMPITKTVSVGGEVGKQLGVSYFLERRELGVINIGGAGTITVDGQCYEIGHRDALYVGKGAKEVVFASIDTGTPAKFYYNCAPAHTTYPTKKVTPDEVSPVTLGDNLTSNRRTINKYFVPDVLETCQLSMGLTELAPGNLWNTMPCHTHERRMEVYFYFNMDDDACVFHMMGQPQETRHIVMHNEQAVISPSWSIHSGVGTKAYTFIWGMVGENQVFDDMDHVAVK

[3] = biological target: T3, glutamate decarboxylase (GadA) from E. coli (E. coli) (UniProt P69908)
T3 sequence: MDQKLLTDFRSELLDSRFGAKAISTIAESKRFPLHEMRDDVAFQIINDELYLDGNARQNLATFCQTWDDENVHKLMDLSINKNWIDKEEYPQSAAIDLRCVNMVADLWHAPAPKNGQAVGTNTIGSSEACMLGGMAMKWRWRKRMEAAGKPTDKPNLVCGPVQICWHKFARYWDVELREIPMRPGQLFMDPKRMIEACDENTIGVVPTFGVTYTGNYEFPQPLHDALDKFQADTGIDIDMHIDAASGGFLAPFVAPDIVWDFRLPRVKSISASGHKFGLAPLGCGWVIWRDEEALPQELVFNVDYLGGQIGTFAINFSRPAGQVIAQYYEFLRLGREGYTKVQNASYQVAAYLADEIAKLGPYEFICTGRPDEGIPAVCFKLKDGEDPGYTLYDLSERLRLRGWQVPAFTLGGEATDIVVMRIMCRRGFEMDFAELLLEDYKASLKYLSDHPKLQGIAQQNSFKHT

Measured: binding

B1: inorganic pyrophosphatase (PPase) from E. coli (enzyme)
chain: SLLNVPAGKDLPEDIYVVIEIPANADPIKYEIDKESGALFVDRFMSTAMFYPCNYGYINHTLSLDGDPVDVLVPTPYPLQPGSVIRCRPVGVLKMTDEAGEDAKLVAVPHSKLSKEYDHIKDVNDLPELLKAQIAHFFEHYKDLEKGKWVKVEGWENAEAAKAEIVASFERAKNK
notes: inorganic pyrophosphatase, E. coli; Hexamer in solution by SAXS
no binding: all assays above
